The list is a part of this screen's results and no random one: it gathers tests that were run many times, whatever their T/C, doses with no T/C, and many T/C values between a quarter and a half above the control. Other doses and runs of a compound stand elsewhere. T/C gives the treated animals as a percentage of the vehicle group. Some entries give survivors of the animals treated and no T/C: the source files T/C as zero there, which appears to mark a toxic dose or a test without result, not a measured value. Some survivor counts are full or nearly so, which does not show that the dose was tolerated: survival well below the control is almost never listed, so the zero probably covers shortened survival too. Survivors were counted at the toxicity check, usually on the fifth day, unless a day is given; later deaths do not show. Schedule codes are those of the source, taken here to give the interval after Q, in days (D) or hours (H), and the number of doses after X. Some entries were tested several times; the results are listed from low to high. Where survival is the endpoint, this PubChem deposit counts one and a half times the control or more as active, and values a quarter to a half above the control carry no call in these data; other NCI protocols may use other cut-offs.

The record followed here is PubChem BioAssay AID248 (DTP/NCI, 2004).

This assay has as its system L1210 leukemia ip in BDF1 mice, survival T/C. Kind of assay: NCI In Vivo Anticancer Drug Screen. Data for tumor model L1210 Leukemia (intraperitoneal) in B6D2F1 (BDF1) mice. The conditions noted are these: T/C endpoint: mean survival time, higher T/C = longer survival.
Where [1] appears, read: dose: 150.0 mg/kg/injection, schedule: Q01DX001 (ip), vehicle: saline.
[2] abbreviates: dose: 300.0 mg/kg/injection, schedule: Q01DX001 (ip), vehicle: saline.
Setting [3] is: dose: 25.0 mg/kg/injection, schedule: Q01DX009 (ip), vehicle: saline.
Setting [4] is: dose: 400.0 mg/kg/injection, schedule: Q04DX002 (ip), vehicle: Klucel (hydroxypropylcellulose) (HPC).
Where [5] appears, read: dose: 400.0 mg/kg/injection, schedule: Q04DX003 (ip), vehicle: Klucel (hydroxypropylcellulose) (HPC).
Where [6] appears, read: dose: 100.0 mg/kg/injection, schedule: Q04DX003 (ip), vehicle: Klucel (hydroxypropylcellulose) (HPC).
Where [7] appears, read: dose: 200.0 mg/kg/injection, schedule: Q04DX003 (ip), vehicle: Klucel (hydroxypropylcellulose) (HPC).
[8] abbreviates: dose: 200.0 mg/kg/injection, schedule: Q01DX009 (ip), vehicle: saline with Tween-80.
[9] abbreviates: dose: 50.0 mg/kg/injection, schedule: Q01DX009 (ip), vehicle: saline.
The mark [10] stands for this setting: dose: 100.0 mg/kg/injection, schedule: Q04DX003 (ip), vehicle: saline.
Where [11] appears, read: dose: 200.0 mg/kg/injection, schedule: Q04DX003 (ip), vehicle: saline.
Where [12] appears, read: dose: 400.0 mg/kg/injection, schedule: Q04DX003 (ip), vehicle: saline.
[13] abbreviates: dose: 200.0 mg/kg/injection, schedule: Q01DX001 (ip), vehicle: saline.
The mark [14] stands for this setting: dose: 400.0 mg/kg/injection, schedule: Q01DX001 (ip), vehicle: saline.

For the molecule `O=S1(=O)CC2=C1/C=C/CCCC2`, the survivor count is, setting by setting: (dose: 20.0 mg/kg/injection, schedule: Q01DX001 (ip), vehicle: saline) 3 of 6; (dose: 20.0 mg/kg/injection, schedule: Q04DX002 (ip), vehicle: Klucel (hydroxypropylcellulose) (HPC)) 3 of 3; (dose: 40.0 mg/kg/injection, schedule: Q01DX001 (ip), vehicle: saline) 1 of 6; (dose: 75.0 mg/kg/injection, schedule: Q01DX001 (ip), vehicle: saline) 0 of 6; under setting [1], 0 of 6; under setting [2], 0 of 6.

Consider `Nc1c2c(nc3ccccc13)CCCC2`, for which the survivor count (dose: 6.25 mg/kg/injection, schedule: Q01DX009 (ip), vehicle: saline) is given as 6 of 6; the survivor count (dose: 12.5 mg/kg/injection, schedule: Q01DX009 (ip), vehicle: saline) is reported as 6 of 6; the survivor count under setting [3] is recorded as 6 of 6.

As to `CCCCN=Cc1ccccc1O.CCCCN=Cc1ccccc1O.[Cu]`, the survivor count is, setting by setting: (dose: 12.5 mg/kg/injection, schedule: Q01DX009 (ip), vehicle: Klucel (hydroxypropylcellulose) (HPC)) 3 of 3; (dose: 50.0 mg/kg/injection, schedule: Q04DX002 (ip), vehicle: Klucel (hydroxypropylcellulose) (HPC)) 1 of 3; (dose: 200.0 mg/kg/injection, schedule: Q04DX002 (ip), vehicle: Klucel (hydroxypropylcellulose) (HPC)) 0 of 3; under setting [4], 0 of 3.

Turning to `N#CC12C(=N)CCC1C1C=CC2C1` (stereo unspecified), the survivor count reads like this: (dose: 25.0 mg/kg/injection, schedule: Q01DX009 (ip), vehicle: Klucel (hydroxypropylcellulose) (HPC)) 1 of 6; (dose: 50.0 mg/kg/injection, schedule: Q01DX009 (ip), vehicle: Klucel (hydroxypropylcellulose) (HPC)) 0 of 6; (dose: 100.0 mg/kg/injection, schedule: Q01DX009 (ip), vehicle: Klucel (hydroxypropylcellulose) (HPC)) 0 of 6; (dose: 200.0 mg/kg/injection, schedule: Q01DX009 (ip), vehicle: Klucel (hydroxypropylcellulose) (HPC)) 0 of 6; under setting [5], 0 of 6.

`O=C(Nc1cc(C(F)(F)F)ccc1Cl)N(Cc1ccccc1)c1ccccc1`: the T/C under setting [4] is 129 % of control.

Regarding `Cc1cc(N(CCOS(C)(=O)=O)CCOS(C)(=O)=O)ccc1C=Nc1cc(Br)c(O)c(Br)c1`, the T/C was 126 % of control (dose: 50.0 mg/kg/injection, schedule: Q04DX003 (ip), vehicle: Klucel (hydroxypropylcellulose) (HPC)) and 89, 127, 144, 153 % of control under setting [6]. Besides, the survivor count runs as follows: (dose: 150.0 mg/kg/injection, schedule: Q04DX003 (ip), vehicle: Klucel (hydroxypropylcellulose) (HPC)) 5 of 6; under setting [7], 6 of 6; under setting [5], 1 of 6.

Consider `Cc1nc(N)[nH]c(=O)c1CCCNC(=O)c1cccc([N+](=O)[O-])c1`, for which the survivor count (dose: 200.0 mg/kg/injection, schedule: Q01DX001 (ip), vehicle: Klucel (hydroxypropylcellulose) (HPC)) was 0 of 6.

For the molecule `CCCCCCCCCCCCCCCCCC[n+]1ccccc1`, the survivor count was 2 of 3 (dose: 0.78 mg/kg/injection, schedule: Q01DX009 (ip), vehicle: saline with Tween-80); 0 of 3 (dose: 1.56 mg/kg/injection, schedule: Q01DX009 (ip), vehicle: saline with Tween-80); 0 of 3 (dose: 3.12 mg/kg/injection, schedule: Q01DX009 (ip), vehicle: saline with Tween-80); 0 of 3 (dose: 50.0 mg/kg/injection, schedule: Q01DX009 (ip), vehicle: saline with Tween-80); 0 of 3 (dose: 100.0 mg/kg/injection, schedule: Q01DX009 (ip), vehicle: saline with Tween-80); 0 of 3 under setting [8].

As for `O=C(Nc1ccc(I)cc1)Nc1ccc(Cl)cc1[N+](=O)[O-]`, the survivor count is 6 of 6 under setting [8]; 3 of 3 and 6 of 6 (dose: 400.0 mg/kg/injection, schedule: Q01DX009 (ip), vehicle: saline with Tween-80).

For the molecule `O=S1(=O)C=CC(Br)C1` (stereo unspecified), the survivor count (dose: 400.0 mg/kg/injection, schedule: Q01DX001 (ip), vehicle: saline with Tween-80) was 0 of 6.

Consider `c1cc[n+]2c(c1)-c1cccc[n+]1CC2`, for which the survivor count is, setting by setting: under setting [3], 6 of 6; under setting [9], 0 of 6; under setting [10], 2 of 6; under setting [1], 1 of 6; under setting [11], 1 of 6; under setting [2], 0 of 6. Moreover, the survivor count under setting [12] is reported as 0 of 6.

`CCN(CC)CCn1c(=O)c2ccccc2c2ccccc21`: the survivor count was 3 of 6 (dose: 100.0 mg/kg/injection, schedule: Q01DX009 (ip), vehicle: saline); 1 of 4 under setting [13]; 0 of 6 (dose: 200.0 mg/kg/injection, schedule: Q01DX009 (ip), vehicle: saline); 0 of 4 under setting [14].

`O=C(Nc1ccccn1)c1cc(N2CCOCC2)ccn1`: the survivor count under setting [13] is recorded as 3 of 6 and the survivor count under setting [14] is 3 of 6.

Take `CC(=O)C=O`: the survivor count (dose: 240.0 mg/kg/injection, schedule: Q03DX002 (ip), vehicle: saline) is given as 3 of 10; the survivor count under setting [2] is given as 2 of 10; the survivor count (dose: 360.0 mg/kg/injection, schedule: Q03DX002 (ip), vehicle: saline) is listed as 0 of 10; the survivor count (dose: 450.0 mg/kg/injection, schedule: Q01DX001 (ip), vehicle: saline) is 0 of 10; the survivor count (dose: 540.0 mg/kg/injection, schedule: Q03DX002 (ip), vehicle: saline) is reported as 0 of 10; the survivor count (dose: 675.0 mg/kg/injection, schedule: Q01DX001 (ip), vehicle: saline) is on record as 0 of 10. The survivor count is 0 of 10 (dose: 810.0 mg/kg/injection, schedule: Q03DX002 (ip), vehicle: saline); 0 of 10 (dose: 1000.0 mg/kg/injection, schedule: Q01DX001 (ip), vehicle: saline); 0 of 10 (dose: 1500.0 mg/kg/injection, schedule: Q01DX001 (ip), vehicle: saline); 0 of 10 (dose: 2250.0 mg/kg/injection, schedule: Q01DX001 (ip), vehicle: saline).

Turning to `C[N+](C)(C)CCCC1C2CCC(C2)C1C[N+](C)(C)C` (stereo unspecified), the survivor count under setting [9] is reported as 0 of 6; the survivor count (dose: 50.0 mg/kg/injection, schedule: Q04DX003 (ip), vehicle: saline) is 1 of 6; the survivor count under setting [10] is 0 of 6; the survivor count under setting [11] is given as 0 of 6; the survivor count under setting [12] is listed as 0 of 6.

As to `FC1(F)SC2CCCCCCC2C1(F)F` (stereo unspecified), the survivor count under setting [6] was 0 of 6, the survivor count under setting [7] is on record as 0 of 6 and the survivor count under setting [5] is 0 of 6.

Take `O=C(O)C1CCCCC1C(=O)Nc1ccc(Cl)cc1` (stereo unspecified): where the note is “dose: 400.0 mg/kg/injection, schedule: Q04DX003 (ip), vehicle: saline with Tween-80”, the survivor count is 2 of 6.
